Experimental data: PubChem BioAssay AID686937 (Drosophila RNAi Screening Center, 2013)
Assay: 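Genes whose loss weakens secretory pathway function in fly cells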 (primary screen). System: Drosophila S2 cells expressing secreted horseradish peroxidase. Reagents: long dsRNA against Drosophila genes. Timing: about 5.5 days (5 days dsRNA, then 12 h reporter induction). Challenge: reporter expression induced after 5 days of dsRNA, read 12 h later; inducer not stated. Read-out: 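Chemiluminescent measurement of peroxidase in the medium 12 h after reporter induction, following 5 days of dsRNA, given as a z-score per plate; higher means more secretion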. Reading the numbers: z-score: higher = more reporter secreted into medium.
In all, the deposit lists about 23,000 reagents; shown is a random part of those that have a named target and a result. 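Reduced-secretion tags in replicate 1 do not always agree with the z-scores; no criterion for assigning the tags was given.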 Names joined by + are all predicted targets of the reagent. Not all columns of the deposit are shown. Reagent sequences are not shown. Not stated in the record: the amount of reagent.

For trbl (tribbles) [DRSC11901], what does the deposit list?
z-score, replicate 1: 0.37

With CG13875 [DRSC08345], how do the results read?
z-score, replicate 1: 0.09

With bbg (big bang) [DRSC11077], what does the deposit list?
z-score, replicate 1: 0.63

For bbg (big bang) [DRSC11079], what does the deposit list?
z-score, replicate 1: 0.19

With PNUTS (Phosphatase 1 nuclear targeting subunit) [DRSC00638], what does the deposit list?
z-score, replicate 1: -0.61

For PNUTS (Phosphatase 1 nuclear targeting subunit) [DRSC22136], how do the results read?
z-score, replicate 1: -0.83

For CG43278 (retired record) [DRSC17524], what does the deposit list?
z-score, replicate 1: 0.38

For Tsen54 (tRNA splicing endonuclease subunit 54) [DRSC10527], how do the results read?
z-score, replicate 1: 0.38

What did the screen give for lncRNA:CR32835 (long non-coding RNA:CR32835) [DRSC22693]?
z-score, replicate 1: 0.32

With CG30286 [DRSC04070], what does the deposit list?
z-score, replicate 1: 0.02

For ver (verrocchio) [DRSC10125], what was measured?
z-score, replicate 1: 0.31

What did the screen give for CG9691 [DRSC18441]?
z-score, replicate 1: 0.41

What did the screen give for CG7789 [DRSC16312]?
z-score, replicate 1: 0.28

What is on record for Bet5 (Blocked early in transport 5) [DRSC14600]?
z-score, replicate 1: -1.62; phenotype, replicate 1: reduced secretion

With Qsox2 (Quiescin sulfhydryl oxidase 2) [DRSC15287], what was measured?
z-score, replicate 1: 0.42

For unc-13 [DRSC17192], what was measured?
z-score, replicate 1: 0.21

What is on record for unc-13 [DRSC17193]?
z-score, replicate 1: -0.34

With unc-13 [DRSC17223], what was measured?
z-score, replicate 1: 0.18

What did the screen give for CG17169 [DRSC20905]?
z-score, replicate 1: -0.51

What did the screen give for MED22 (Mediator complex subunit 22) [DRSC18175]?
z-score, replicate 1: -3.21; phenotype, replicate 1: reduced secretion

For Npc1a (Niemann-Pick type C-1a) [DRSC03378], what does the deposit list?
z-score, replicate 1: -0.13

With kuz (kuzbanian) [DRSC03555], what does the deposit list?
z-score, replicate 1: -0.23

For CG9166 [DRSC07842], how do the results read?
z-score, replicate 1: -0.08

With Cpr5C (Cuticular protein 5C) [DRSC18340], how do the results read?
z-score, replicate 1: -0.57

With Strn-Mlck (Stretchin-Mlck) [DRSC05032], how do the results read?
z-score, replicate 1: 0.25

For Strn-Mlck (Stretchin-Mlck) [DRSC05598], what was measured?
z-score, replicate 1: 0.27

With Strn-Mlck (Stretchin-Mlck) [DRSC06571], how do the results read?
z-score, replicate 1: 0.59

How did the screen score Strn-Mlck (Stretchin-Mlck) [DRSC07471]?
z-score, replicate 1: 0.28

For CG5687 [DRSC08568], what was measured?
z-score, replicate 1: -3.38; phenotype, replicate 1: reduced secretion

What did the screen give for CG14854 [DRSC14978]?
z-score, replicate 1: 0.47

With CG34205 [DRSC04149], what does the deposit list?
z-score, replicate 1: -0.04

With CG34205 [DRSC22823], how do the results read?
z-score, replicate 1: 0.86

Which result is listed for CG7376 [DRSC10829]?
z-score, replicate 1: 0.15

With CG9948 [DRSC11104], how do the results read?
z-score, replicate 1: -0.18

With CG2120 [DRSC18207], what was measured?
z-score, replicate 1: 0.27

What did the screen give for Amy-d + Amy-p [DRSC21242]?
z-score, replicate 1: 0.56

What did the screen give for NimC2 (Nimrod C2) [DRSC01881]?
z-score, replicate 1: 0.08

What did the screen give for CG14269 [DRSC17912]?
z-score, replicate 1: 0.11

Which result is listed for Taf3 (TBP-associated factor 3) [DRSC17170]?
z-score, replicate 1: 0.15

For CG5966 [DRSC18394], how do the results read?
z-score, replicate 1: 0.33
